Data taken from patent US20250025440A1, “COMPOSITIONS AND METHODS FOR MANAGEMENT OF HUMAN PAPILLOMA VIRUS-ASSOCIATED CANCERS” (LOMA LINDA UNIVERSITY, priority 2021, published 2025).
Some of these results come from one statement about several compounds together.

Sequences of proteins named here, by UniProt entry; tags and fusion partners are left off.
UniProt P03126, whole entry: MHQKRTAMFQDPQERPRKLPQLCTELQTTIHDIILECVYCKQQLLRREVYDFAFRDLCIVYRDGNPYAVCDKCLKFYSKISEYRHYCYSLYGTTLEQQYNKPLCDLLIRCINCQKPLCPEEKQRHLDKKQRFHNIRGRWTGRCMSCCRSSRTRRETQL

Target: T1, full-length HPV E6 binding to human Caspase 8 (Human papillomavirus type 16, UniProt P03126)
T1 construct: made in house; host or cells: E. coli
Conditions: relative to gambogic acid
Method: Three structurally diverse libraries (Prestwick library, Microsource Spectrum library and an in-house collection at Kansas University; see Table 1) were screened for the ability of compounds to inhibit the binding of full-length HPV E6 to human Caspase 8 using a previously optimized AlphaScreen™ protocol.
The compounds were diluted to a working concentration in DMSO and screened at a single-point final concentration of 10 μM with no replicates. Briefly, 75 nL of each compound was transferred and added to wells of the destination 384-well plate using the Echo dispenser to 4 μL of blocking solution. […] The plates were sealed and incubated for 4 hours at room temperature before the plates were read using the Envision™ Multi-Label plate reader (Perkin Elmer Inc.). […] Dose response inhibition curves were constructed and IC50 calculated using GraphPad Prism using four parameter non-linear regression analysis.
The first counter-screen assay was based using the GST-His6 fusion peptide as the E6-binding partner instead of GST-E6-His6-Caspase 8. […] The signals were then read using the Envision™ plate reader.
Using the SciFinder and Zinc15 databases, several gambogic acid structural analogs were identified and selected. […] The effect on cell viability was also similarly done in HPV^+ and HPV^− cell lines via the MTT assay (see below) and potency was determined using GraphPad IC50 curve fitting.

Row | SMILES | activity deviation from the parent compound (logs less active) [logs]
1 | CC(C)=CCCC1(C)C=Cc2c(O)c3c(c(CC=C(C)C)c2O1)O[C@]12C(=CC4C[C@H]1C(C)(C)OC2(CC=C(C)C)C4=O)C3=O (some centres unmarked) [analog #6, gambogin] | > 3
2 | CC(C)=CCC/C(C)=C/Cc1c(O)c(CC=C(C)C)c2c(c1O)C(=O)C1=C[C@@H]3C[C@H]4C(C)(C)O[C@@](C/C=C(/C)C(=O)O)(C3=O)[C@@]14O2 [analog #3, gambogenic acid] | > 3
